Assay results as given in patent EP0415924B1, “REGULATION OF CELL PROLIFERATION AND DIFFERENTIATION USING PEPTIDES” (HOLICK, Michael F, priority 1987, dated 1996).
Part of at least one peptide drawing is inferred or uncertain, most often the ends. Peptide text beside a SMILES is read from it.

Legend:
[1] = system: cultured human keratinocytes; assay: Keratinocyte culture: counts of total cells and basal cells after one week of dosing; type: cell-based; details: for total number of basal cells: seven days
[2] = system: cultured human keratinocytes; assay: Keratinocyte differentiation: count of cornified envelopes after one week of dosing; type: cell-based
[3] = system: PTH-stimulated biologic responses; details: cited from earlier work
[4] = system: PTH-mediated elevation of plasma calcium; details: thyroparathyroidectomized rats in vivo; cited from earlier work
[5] = dose-dependent, relative to control cultures, Figures 6 and 7

| SMILES | total number of basal cells ([1]; 10⁻¹⁰ and 10⁻⁸M) | total number of cornified envelopes (percent of control) [2, 5] | PTH-stimulated biologic responses in vitro [3] | response to 1,25(OH)₂D₃ (cell numbers) on co-incubation ([1]; 1,25(OH)₂D₃ at 10⁻⁸M co-incubated with bPTH (7-34) at 10⁻⁷M) | total number of basal cells ([1]; 10⁻⁸M and 10⁻⁷M) | effect of CFF (1-34) on the total number of cells and total number of basal cells on co-incubation ([1]; co-incubated with CFF (1-34)) | effect of PTH (1-34) on the total number of cells and total number of basal cells on co-incubation ([1]; co-incubated with hPTH (1-34)) | total number of cornified envelopes (percent of control) ([2]; 10⁻⁸M and 10⁻⁷M) | effect of 1,25(OH)₂D₃ on cornified envelope development ([2]; combined with 1,25(OH)₂D₃) | effect of CFF (1-34) on cornified envelope development ([2]; combined with CFF (1-34)) | effect of PTH (1-34) on cornified envelope development ([2]; combined with PTH (1-34)) | PTH-like agonist activity [4] | PTH-mediated elevation of plasma calcium [4] | growth of human cultured keratinocytes ([1]; 10⁻⁷ and 10⁻⁸M) | terminal differentiation of human cultured keratinocytes ([2]; 10⁻⁷ and 10⁻⁸M) |
| --- | --- | --- | --- | --- | --- | --- | --- | --- | --- | --- | --- | --- | --- | --- | --- |
| CCCC[C@H](NC(=O)[C@H](CO)NC(=O)[C@H](CO)NC(=O)[C@H](CC(C)C)NC(=O)[C@H](Cc1c[nH]cn1)NC(=O)[C@H](CCCCN)NC(=O)CNC(=O)[C@H](CC(C)C)NC(=O)[C@H](CC(N)=O)NC(=O)[C@H](Cc1c[nH]cn1)NC(=O)[C@H](CCCC)NC(=O)[C@H](Cc1ccccc1)NC(=O)[C@H](CCC(N)=O)NC(=O)[C@@H](NC(=O)[C@H](CCC(=O)O)NC(=O)[C@@H](N)CO)[C@@H](C)CC)C(=O)N[C@@H](CCC(=O)O)C(=O)N[C@@H](CCCNC(=N)N)C(=O)N[C@H](C(=O)N[C@@H](CCC(=O)O)C(=O)N[C@@H](Cc1c[nH]c2ccccc12)C(=O)N[C@@H](CC(C)C)C(=O)N[C@@H](CCCNC(=N)N)C(=O)N[C@@H](CCCCN)C(=O)N[C@@H](CCCCN)C(=O)N[C@@H](CC(C)C)C(=O)N[C@@H](CCC(N)=O)C(=O)N[C@@H](CC(=O)O)C(=O)N[C@H](C(=O)N[C@@H](Cc1c[nH]cn1)C(=O)N[C@@H](CC(N)=O)C(=O)N[C@@H](Cc1ccc(O)cc1)C(N)=O)C(C)C)C(C)C [PTH (3-34), [Nle⁸, Nle¹⁸, Tyr³⁴] bovine (3-34) PTH amide] (HELM PEPTIDE1{S.E.I.Q.F.[Nle].H.N.L.G.K.H.L.S.S.[Nle].E.R.V.E.W.L.R.K.K.L.Q.D.V.H.N.Y.[am]}$$$$V2.0) | significantly decreased | increased | can be inhibited |  |  |  |  |  |  |  |  |  |  |  |  |
| CSCC[C@H](NC(=O)[C@H](CO)NC(=O)[C@H](CO)NC(=O)[C@H](CC(C)C)NC(=O)[C@H](Cc1c[nH]cn1)NC(=O)[C@H](CCCCN)NC(=O)CNC(=O)[C@H](CC(C)C)NC(=O)[C@H](CC(N)=O)NC(=O)[C@H](Cc1c[nH]cn1)NC(=O)[C@H](CCSC)NC(=O)[C@@H](N)Cc1ccccc1)C(=O)N[C@@H](CCC(=O)O)C(=O)N[C@@H](CCCNC(=N)N)C(=O)N[C@H](C(=O)N[C@@H](CCC(=O)O)C(=O)N[C@@H](Cc1c[nH]c2ccccc12)C(=O)N[C@@H](CC(C)C)C(=O)N[C@@H](CCCNC(=N)N)C(=O)N[C@@H](CCCCN)C(=O)N[C@@H](CCCCN)C(=O)N[C@@H](CC(C)C)C(=O)N[C@@H](CCC(N)=O)C(=O)N[C@@H](CC(=O)O)C(=O)N[C@H](C(=O)N[C@@H](Cc1c[nH]cn1)C(=O)N[C@@H](CC(N)=O)C(=O)N[C@@H](Cc1ccc(O)cc1)C(N)=O)C(C)C)C(C)C [PTH (7-34), [Tyr³⁴] bovine PTH (7-34) amide] |  |  |  | significantly decreased the response to 1,25(OH)₂D₃ | had no effect | inhibited the effect | inhibited the effect | had no effect | inhibited the effect | inhibited the effect | inhibited the effect | devoid of PTH-like agonist activity | can inhibit |  |  |
| CC[C@H](C)[C@H](NC(=O)[C@H](CCC(=O)O)NC(=O)[C@H](CO)NC(=O)[C@@H](NC(=O)[C@@H](N)CO)C(C)C)C(=O)N[C@@H](CCC(N)=O)C(=O)N[C@@H](CC(C)C)C(=O)N[C@@H](CCSC)C(=O)N[C@@H](Cc1c[nH]cn1)C(=O)N[C@@H](CC(N)=O)C(=O)N[C@@H](CC(C)C)C(=O)NCC(=O)N[C@@H](CCCCN)C(=O)N[C@@H](Cc1c[nH]cn1)C(=O)N[C@@H](CC(C)C)C(=O)N[C@@H](CC(N)=O)C(=O)N[C@@H](CO)C(=O)N[C@@H](CCSC)C(=O)N[C@@H](CCC(=O)O)C(=O)N[C@@H](CCCNC(=N)N)C(=O)N[C@H](C(=O)N[C@@H](CCC(=O)O)C(=O)N[C@@H](Cc1c[nH]c2ccccc12)C(=O)N[C@@H](CC(C)C)C(=O)N[C@@H](CCCNC(=N)N)C(=O)N[C@@H](CCCCN)C(=O)N[C@@H](CCCCN)C(=O)N[C@@H](CC(C)C)C(=O)N[C@@H](CCC(N)=O)C(=O)N[C@@H](CC(=O)O)C(=O)N[C@H](C(=O)N[C@@H](Cc1c[nH]cn1)C(=O)N[C@@H](CC(N)=O)C(=O)N[C@@H](Cc1ccccc1)C(=O)O)C(C)C)C(C)C [PTH (1-34), human PTH (1-34)] |  | increased |  |  | significantly decreased |  |  |  |  |  |  |  |  | inhibits growth | induces terminal differentiation |
